The target of assay [1] is T1, GLuc1-tagged μ subunit of the AP-4 complex (UniProt O00189).
T1 sequence: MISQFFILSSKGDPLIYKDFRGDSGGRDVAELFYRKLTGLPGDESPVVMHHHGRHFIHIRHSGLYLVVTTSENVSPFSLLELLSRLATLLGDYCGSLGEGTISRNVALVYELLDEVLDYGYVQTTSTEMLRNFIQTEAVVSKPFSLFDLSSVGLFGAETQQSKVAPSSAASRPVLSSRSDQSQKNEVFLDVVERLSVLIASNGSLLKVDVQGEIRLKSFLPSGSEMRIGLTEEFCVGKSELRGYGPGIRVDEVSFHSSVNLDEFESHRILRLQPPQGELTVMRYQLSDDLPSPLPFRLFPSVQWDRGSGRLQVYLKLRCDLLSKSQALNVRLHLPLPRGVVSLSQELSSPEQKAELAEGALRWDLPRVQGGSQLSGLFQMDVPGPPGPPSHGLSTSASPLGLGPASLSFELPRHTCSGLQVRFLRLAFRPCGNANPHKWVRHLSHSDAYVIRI
The assay can be described thus: split reporter; protein fragment complementation assay (split luciferase): GLuc1-AP μ subunit and GLuc2-HCV protein transfected pairwise into 293T cells; luciferase at 24 h; normalized luminescence ratio (NLR), positive if NLR >25 (>2.2 SD above a random reference set); mutant panels plotted relative to WT; NS2-AP-1B also tested after treatment with compound 7745, 12i, sunitinib or erlotinib.

The target of assay [2] is T2, GLuc1-tagged μ subunit of the AP-1A complex (UniProt Q9BXS5).
T2 sequence: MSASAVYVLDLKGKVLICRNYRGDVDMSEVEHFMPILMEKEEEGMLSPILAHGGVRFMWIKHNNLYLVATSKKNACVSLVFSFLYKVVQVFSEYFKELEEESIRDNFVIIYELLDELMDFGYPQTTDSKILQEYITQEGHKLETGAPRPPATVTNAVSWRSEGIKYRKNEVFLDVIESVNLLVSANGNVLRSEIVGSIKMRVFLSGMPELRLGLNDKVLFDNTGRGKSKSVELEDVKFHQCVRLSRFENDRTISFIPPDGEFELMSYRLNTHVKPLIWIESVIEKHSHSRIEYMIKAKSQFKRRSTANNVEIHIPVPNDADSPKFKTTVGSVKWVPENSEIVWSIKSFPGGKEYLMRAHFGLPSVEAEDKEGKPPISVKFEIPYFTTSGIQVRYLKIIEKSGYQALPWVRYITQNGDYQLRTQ
Described as above.

Assay [3] has as its target T3, GLuc1-tagged μ subunit of the AP-1B complex (UniProt Q9Y6Q5).
T3 sequence: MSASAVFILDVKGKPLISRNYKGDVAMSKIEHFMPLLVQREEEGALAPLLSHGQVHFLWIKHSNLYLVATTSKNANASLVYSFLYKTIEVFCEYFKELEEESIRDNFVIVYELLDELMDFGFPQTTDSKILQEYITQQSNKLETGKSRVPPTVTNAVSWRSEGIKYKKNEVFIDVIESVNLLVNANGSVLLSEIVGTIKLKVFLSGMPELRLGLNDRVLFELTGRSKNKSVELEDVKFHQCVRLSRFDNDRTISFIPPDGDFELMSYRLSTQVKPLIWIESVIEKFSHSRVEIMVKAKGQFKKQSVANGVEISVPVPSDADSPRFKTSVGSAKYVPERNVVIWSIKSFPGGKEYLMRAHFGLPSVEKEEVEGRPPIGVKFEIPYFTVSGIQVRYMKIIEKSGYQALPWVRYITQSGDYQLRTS
The description is as above.

For assay [4], the target named is T4, AP-4 ectopically expressed in Huh7.5 cells (UniProt O00189).
T4 sequence: T1 sequence
Kind of assay: co-IP; membrane fractions of Huh7.5 cells ectopically expressing WT or QM GLuc-NS2 and AP-4; IP with anti-AP-4 antibodies and IgG controls; blots for AP-4 and GLuc (NS2).

No constants are given. Whether binding was seen depends on the method and setting. In cells and extracts the contact can be indirect. A result given as binding can be weak or reduced; the word gives no strength. For some assays here: Sequences can lack the tags named with a protein.

For “GLuc-NS2 D207A (hepatitis C virus (J6/JFH genome))”, the binding entry in assay [1], in assay [2] and in assay [3] was “binds” each time.
Take “GLuc-NS2 E200A (hepatitis C virus (J6/JFH genome))”: the binding result in assay [1], in assay [2] and in assay [3] was “binds” in each case.
For the substance “GLuc-NS2 double mutant (L202A-L217A) (hepatitis C virus (J6/JFH genome))”, the binding entry in assay [2] and in assay [3] was “binds” in each case.
As to “GLuc-NS2 quadruple mutant (L202A-L203A-L216A-L217A) (hepatitis C virus (J6/JFH genome))”, the binding result in assay [4], in assay [2] and in assay [3] was “binds” each time.

The values are drawn from paper PMC5850324, “Interactions between the Hepatitis C Virus Nonstructural 2 Protein and Host Adaptor Proteins 1 and 4 Orchestrate Virus Release” (mBio, 2018).
